In PMC6987189, “Native aggregation is a common feature among triosephosphate isomerases of different species” (Scientific Reports, 2020):
These are yes or no findings as the source states them, for the method shown. Tags and fused reporters may be left off the sequences shown.

Target: Entamoeba histolytica triosephosphate isomerase (Entamoeba histolytica) (UniProt O02611)
Assay: condition: only with lithium dodecyl sulphate (concentrations in Figure 4B); native gel or EMSA; BN-PAGE of thirty micrograms of purified TIM loaded with increasing concentrations of lithium dodecyl sulphate (LDS); aggregates to single monomers; both purified

binding: no binding
B1: Entamoeba histolytica triosephosphate isomerase (enzyme, UniProt O02611 1-261)
chain: MSARKFVVGGNWKCNGTLASIETLTKGVAASVDAELAKKVEVIVGVPFIYIPKVQQILAGEANGANILVSAENAWTKSGAYTGEVHVGMLVDCQVPYVILGHSERRQIFHESNEQVAEKVKVAIDAGLKVIACIGETEAQRIANQTEEVVAAQLKAINNAISKEAWKNIILAYEPVWAIGTGKTATPDQAQEVHQYIRKWMTENISKEVAEATRIQYGGSVNPANCNELAKKADIDGFLVGGASLDAAKFKTIINSVSEKF
